These results are taken from US20130230532A1 (HONG KONG UNIVERSITY OF SCIENCE AND TECHNOLOGY, published 2013).

The assay deals with RII subunit of protein kinase A. As to the kind of experiment: anti-FLAG co-immunoprecipitation from HEK293T, immunoblot for RII subunit. (Immunoblotting shows a protein as a band on a membrane.)

Results are given in words; binding and its absence hold for the method and conditions named. Binding seen in cells or lysates may run through a third protein. Sequences can lack the tags named with a protein.

B1: FLAG-tagged MMG8 fragment 390-1116 (other)
chain: HETTITQQSVSDSHLAELQEKIQQTEATNKILQEKLNEMSYELKCAQESSQKQDGTIQNLKETLKSRERETEELYQVIEGQNDTMAKLREMLHQSQLGQLHSSEGTSPAQQQVALLDLQSALFCSQLEIQKLQRVVRQKERQLADAKQCVQFVEAAAHESEQQKEASWKHNQELRKALQQLQEELQNKSQQLRAWEAEKYNEIRTQEQNIQHLNHSLSHKEQLLQEFRELLQYRDNSDKTLEANEMLLEKLRQRIHDKAVALERAIDEKFSALEEKEKELRQLRLAVRERDHDLERLRDVLSSNEATMQSMESLLRAKGLEVEQLSTTCQNLQWLKEEMETKFSRWQKEQESIIQQLQTSLHDRNKEVEDLSATLLCKLGPGQSEIAEELCQRLQRKERMLQDLLSDRNKQVLEHEMEIQGLLQSVSTREQESQAAAEKLVQALMERNSELQALRQYLGGRDSLMSQAPISNQQAEVTPTGRLGKQTDQGSMQIPSRDDSTSLTAKEDVSIPRSTLGDLDTVAGLEKELSNAKEELELMAKKERESQMELSALQSMMAVQEEELQVQAADMESLTRNIQIKEDLIKDLQMQLVDPEDIPAMERLTQEVLLLREKVASVESQGQEISGNRRQQLLLMLEGLVDERSRLNEALQAERQLYSSLVKFHAHPESSERDRTLQVELEGAQVLRSRLEEVLGRSLERLNRLETLAAIGGGELESVRIHHKHAY
notes: not shown: FLAG tag
As for B1, the binding result is “no binding”.
